Patent US20210054365A1
Results are given in words; binding and its absence hold for the method and conditions named. Some results given as binding are weak or reduced against the parent protein; the word gives no strength.

Amino acid sequences for entries named in this document (tags omitted). Residues count along the entry.
UniProt Q16548, residues 1-153: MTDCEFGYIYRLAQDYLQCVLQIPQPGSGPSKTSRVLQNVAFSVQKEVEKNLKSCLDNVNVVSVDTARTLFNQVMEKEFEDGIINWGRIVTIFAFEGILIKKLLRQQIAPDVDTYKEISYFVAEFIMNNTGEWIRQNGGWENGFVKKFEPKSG
UniProt P10415, residues 1-207: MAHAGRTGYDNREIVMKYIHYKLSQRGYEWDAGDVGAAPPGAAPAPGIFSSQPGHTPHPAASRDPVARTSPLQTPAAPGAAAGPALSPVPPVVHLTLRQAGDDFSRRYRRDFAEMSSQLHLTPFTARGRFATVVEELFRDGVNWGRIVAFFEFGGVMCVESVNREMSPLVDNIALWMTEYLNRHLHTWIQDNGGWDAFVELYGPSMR

Key:
Bfl1 = Bfl1 (UniProt Q16548); assay: one-pot batched yeast mating, barcode sequencing
Bcl2 = Bcl2 (UniProt P10415); assay: one-pot batched yeast mating, barcode sequencing

B1: Noxa.BH3 (peptide, UniProt Q13794 18-43, looked up)
peptide: PAELEVECATQLRRFGDKLNFRQKLL
binding (Bfl1): binds

B2: Bad.BH3 (peptide, UniProt Q92934 103-127, looked up)
peptide: NLWAAQRYGRELRRMSDEFVDSFKK
binding (Bcl2): binds
